Experimental data: PubChem BioAssay AID652243 (Drosophila RNAi Screening Center, 2013)
The deposit covers about 24,000 reagents; this is a random part of those with a known target gene and a result. Of all reagents, 246 (1%) are marked active. 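Plates not normalised; calls are printed but the firefly/Renilla ratio behind them is not deposited; fold cut for lowering reported inconsistently.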 Raw values vary from plate to plate and are shown uncorrected. Reagents against one gene are numbered here. A plus sign joins genes that one reagent is predicted to hit. Reagent sequences are not shown. The record does not give: the amount of reagent.

Assay: 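Knock-downs that decrease or increase androgen receptor reporter signal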 (primary screen)
Cell system: Drosophila S2R+ cells
Knock-down reagent: long dsRNA against Drosophila genes
Duration: 72 h (48 h, then 24 h hormone)
Treatment: synthetic androgen R1881 at 10 nM for 24 h
Detection: 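Firefly light from an androgen-responsive reporter and Renilla control light per well, raw and unnormalised, for each of two replicates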
Direction: firefly reporter light: higher = more light from androgen-responsive reporter; Renilla control light: higher = more constitutive control signal (cell number, transfection)
Rule for the call: 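Hit when the log firefly-to-Renilla ratio dropped or increased by a fixed fold versus the mean of GFP or LacZ controls across duplicate plates; lowering cut given as 1.5 and as 3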
Meaning of the calls: active = hit: reporter lowered or raised; inactive = no hit

target | reagent no. | firefly reporter light, replicate 1 | firefly reporter light, replicate 2 | Renilla control light, replicate 1 | Renilla control light, replicate 2 | Outcome
CG6462 | 1 | 1.12e5 | 1.17e5 | 1.32e6 | 1.38e6 | inactive
CG6462 | 2 | 1.01e6 | 9.89e5 | 9.40e5 | 9.08e5 | inactive
CG34132 | 1 | 1.69e5 | 5.46e5 | 7.85e5 | 2.05e6 | inactive
CG42238 | 1 | 1.20e6 | 5.00e5 | 2.98e6 | 1.64e6 | inactive
CG4806 | 1 | 2.11e5 | 2.37e5 | 1.15e6 | 1.55e6 | inactive
Nup62 (Nucleoporin 62kD) | 1 | 8.16e5 | 9.20e5 | 1.52e6 | 1.59e6 | inactive
CG13127 | 1 | 1.40e5 | 99517 | 1.26e6 | 8.98e5 | inactive
CG13127 | 2 | 4.90e5 | 3.91e5 | 1.80e6 | 1.69e6 | inactive
CG5011 + CG43349 | 1 | 4.84e5 | 5.89e5 | 1.57e6 | 1.46e6 | inactive
Mitofilin | 1 | 27983 | 46828 | 4.01e5 | 3.19e5 | inactive
CG14932 | 1 | 2.25e5 | 2.49e5 | 1.15e6 | 1.84e6 | inactive
CG14932 | 2 | 4.32e5 | 4.00e5 | 7.01e5 | 8.13e5 | inactive
Cog7 (Component of oligomeric golgi complex 7) | 1 | 2.93e5 | 2.15e5 | 2.28e6 | 3.34e6 | inactive
CG18628 | 1 | 3.31e5 | 3.08e5 | 3.63e6 | 2.59e6 | inactive
Karybeta3 (Karyopherin beta 3) | 1 | 42754 | 42408 | 3.67e5 | 3.40e5 | inactive
CG2104 | 1 | 42474 | 48438 | 1.43e6 | 1.25e6 | inactive
CG2104 | 2 | – | – | – | – | inactive
CG9068 | 1 | 70989 | 84619 | 1.46e6 | 1.46e6 | inactive
CG5397 | 1 | 6.42e5 | 7.92e5 | 1.47e6 | 1.58e6 | inactive
CG5397 | 2 | 5.05e5 | 6.52e5 | 8.56e5 | 1.05e6 | inactive
CG13526 | 1 | 2.09e5 | 4.09e5 | 1.49e6 | 2.28e6 | inactive
CG7560 | 1 | 3.03e5 | 3.03e5 | 3.06e6 | 3.08e6 | inactive
CG6276 | 1 | 47603 | 50896 | 5.22e5 | 4.57e5 | inactive
CG6276 | 2 | 5.28e5 | 3.94e5 | 1.69e6 | 1.04e6 | inactive
GluRIIA (Glutamate receptor IIA) | 1 | 88386 | 1.36e5 | 9.35e5 | 8.93e5 | inactive

An excerpt taken from the entries so far, as a working copy:
target | reagent no. | firefly reporter light, replicate 1 | firefly reporter light, replicate 2 | Renilla control light, replicate 1 | Renilla control light, replicate 2 | Outcome
Karybeta3 (Karyopherin beta 3) | 1 | 42754 | 42408 | 3.67e5 | 3.40e5 | inactive
CG2104 | 1 | 42474 | 48438 | 1.43e6 | 1.25e6 | inactive
CG2104 | 2 | – | – | – | – | inactive
CG9068 | 1 | 70989 | 84619 | 1.46e6 | 1.46e6 | inactive
CG5397 | 1 | 6.42e5 | 7.92e5 | 1.47e6 | 1.58e6 | inactive
CG5397 | 2 | 5.05e5 | 6.52e5 | 8.56e5 | 1.05e6 | inactive
CG13526 | 1 | 2.09e5 | 4.09e5 | 1.49e6 | 2.28e6 | inactive

The results go on:
target | reagent no. | firefly reporter light, replicate 1 | firefly reporter light, replicate 2 | Renilla control light, replicate 1 | Renilla control light, replicate 2 | Outcome
Xe7 | 1 | 85763 | 84947 | 2.37e6 | 1.61e6 | inactive
CG7208 | 1 | 60559 | 1.01e5 | 6.81e5 | 1.09e6 | inactive
CG7208 | 2 | 2.95e5 | 2.28e5 | 5.22e5 | 4.75e5 | inactive
CG3164 | 1 | 40390 | 37636 | 3.10e5 | 3.65e5 | inactive
CG4270 | 1 | 1.07e5 | 68082 | 7.88e5 | 7.89e5 | inactive
Cp18 (Chorion protein 18) | 1 | 2.35e5 | 3.35e5 | 3.13e6 | 1.88e6 | inactive
CG31321 | 1 | 83997 | 88655 | 2.17e5 | 2.55e5 | inactive
CG31321 | 2 | 2.20e5 | 2.55e5 | 7.64e5 | 6.85e5 | inactive
CG9095 | 1 | 3.25e5 | 3.45e5 | 2.32e6 | 2.27e6 | inactive
Urod (Uroporphyrinogen decarboxylase) | 1 | 4.12e5 | 2.83e5 | 2.21e6 | 1.87e6 | inactive
Urod (Uroporphyrinogen decarboxylase) | 2 | 4.90e5 | 4.36e5 | 1.07e6 | 8.01e5 | inactive
Rpp20 + CG33932 | 1 | 1.32e5 | 1.11e5 | 5.61e5 | 2.32e5 | inactive
MED16 (Mediator complex subunit 16) | 1 | 1.67e5 | 2.37e5 | 1.52e6 | 1.65e6 | inactive
MED16 (Mediator complex subunit 16) | 2 | 2.64e5 | 2.73e5 | 4.99e5 | 4.49e5 | inactive
Lk (Leucokinin) | 1 | 2.38e5 | 2.06e5 | 3.02e6 | 2.43e6 | inactive
dgt1 (dim gamma-tubulin 1) | 1 | 1.05e5 | 81774 | 1.53e5 | 1.22e5 | inactive
apolpp (apolipophorin) | 1 | 63013 | 55632 | 5.62e5 | 3.42e5 | inactive
ClC-a (Chloride channel-a) | 1 | 2.16e5 | 2.63e5 | 2.56e6 | 2.70e6 | inactive
ClC-a (Chloride channel-a) | 2 | 1.46e5 | 1.51e5 | 2.32e6 | 2.72e6 | inactive
ClC-a (Chloride channel-a) | 3 | 56282 | 53932 | 4.01e5 | 6.49e5 | inactive
CG6356 | 1 | 1.45e5 | 1.88e5 | 2.29e6 | 2.17e6 | inactive
CG10565 | 1 | 51435 | 42592 | 2.57e5 | 2.05e5 | inactive
CG13358 | 1 | 1.92e5 | 2.62e5 | 3.00e6 | 2.86e6 | inactive
CG13358 | 2 | 1.03e6 | 1.07e6 | 9.41e5 | 1.12e6 | inactive
Arp1 (Actin-related protein 1) | 1 | 53363 | 51673 | 1.04e6 | 1.13e6 | inactive
Arp1 (Actin-related protein 1) | 2 | 4.07e5 | 2.73e5 | 5.90e5 | 6.77e5 | inactive
Kul (Kuzbanian-like) | 1 | 94511 | 1.23e5 | 1.60e6 | 2.06e6 | inactive
Kul (Kuzbanian-like) | 2 | 2.76e5 | 3.87e5 | 9.76e5 | 9.07e5 | inactive
mei-218 + mei-217 | 1 | 4.40e5 | 8.20e5 | 1.52e6 | 1.62e6 | inactive
CG17549 | 1 | 8.13e5 | 8.13e5 | 1.91e6 | 2.30e6 | inactive
CG7272 | 1 | 2.03e5 | 1.89e5 | 2.00e6 | 1.67e6 | inactive
Edem2 (ER degradation enhancer, mannosidase alpha-like 2) | 1 | 2.94e5 | 3.10e5 | 2.40e6 | 2.11e6 | inactive
Edem2 (ER degradation enhancer, mannosidase alpha-like 2) | 2 | 4.29e5 | 2.78e5 | 5.77e5 | 3.51e5 | inactive
